# Test results: PubChem BioAssay AID493014 (National Center for Advancing Translational Sciences (NCATS), 2011)
# Out of some 340,000 compounds screened, about 170 (0.05%) were called active. The inconclusive results got no clear call from the source; some entries with a clear call stand among them for comparison. Calls come from the whole dose curve; as a rule, active = well fitted inhibition curve with a large enough effect in the signal ratio, with a control signal flat (not every such curve was filed as active); inconclusive = small, poorly fitted or top-dose-only effect, or effect the other way, or a change in a side signal; inactive = flat fitted curve, though single readings scatter; the % refers to the signal ratio. Potencies of inconclusive entries are doubtful fits and often do not repeat.
# Test: qHTS Assay to Find Inhibitors of Chronic Active B-Cell Receptor Signaling;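 for activity change, negative = inhibition: plate controls were basal doxycycline-induced cells for no effect and cells given 10 µM MG132 for full effect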
# Details: ABC-DLBCL IkBa-CBG/CBR reporter, luminescence ratio (green luciferase fused to IkBa over red control in TMD8 lymphoma cells), 4 h; activity change, negative = inhibition: at 46.1 µM (top of the series)
# How it was run: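 Doxycycline induced both beetle luciferases in TMD8 lymphoma cells; IKK-driven degradation limits the IkappaBalpha-fused green signal, while red luminescence normalises for cell number and nonspecific effects. Compounds tested up to 46 uM, 4 hrs.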
# Potency is the fitted concentration of half-maximal effect.
SMILES,Potency,"activity change, negative = inhibition"
O=C(Nc1cccc2ccccc12)N1CC=C(c2ccccc2)CC1,"inconclusive: 1.16 µM [falling, full curve, poor fit]",
COC(=O)C(C(=O)OC)c1ncc(C(F)(F)F)cc1Cl,,inactive: -1.27%
COc1ccccc1CC(=O)Nc1nc(-c2ccc(F)c(F)c2)cs1,"inconclusive: 5.01 µM [falling, partial curve, poor fit]",
Cc1nc(NC(=O)c2cnccn2)ccc1Br,active: 1 µM,
CCn1c(=O)cc(SCC(=O)NCc2ccc(C)cc2)c2ccccc21,"inconclusive: 16.4 µM [falling, single point]",
O=[N+]([O-])c1ccc2c(c1)nc1n2CCN(c2ccccc2)C1,"inconclusive: 25.1 µM [falling, single point]",
CN(C(=O)C1CCC(=O)N(CCCN2CCCC2=O)C1)C(C1CC1)C1CC1 (stereo not drawn),,inactive: 6.01%
O=C(CNS(=O)(=O)c1ccccc1)NCC(=O)OCc1ccccc1F,,inconclusive: 6.89%
Cc1ccc(C(=O)N2CCC3(CC2)Oc2ccc(F)cc2C(=O)C32CC(c3ccccc3)=NO2)s1 (stereo not drawn),,inconclusive: -2.55%
Cc1ccc(-c2csc(N(CCCN(C)C)C(=O)c3ccco3)n2)cc1,,inactive: 1.76%
CC1CCC(N2CCN(C(=O)c3ccccc3F)CC2)CC1 (stereo not drawn),,inactive: 2%
CCOC(=O)c1c(-c2ccccc2)oc2ccc(OCC(=O)NNC(=O)CCCC(=O)O)cc12,,inconclusive: 12.6%
COCCN1C(=O)C(=O)/C(=C(/O)c2ccc(S(=O)(=O)N3CCOCC3)cc2)C1c1cccc(Cl)c1 (stereo not drawn),,inconclusive: 4.01%
Cc1nc2ccc([N+](=O)[O-])cc2c(=O)n1Cc1cccc(F)c1,,inconclusive: -1.33%
CCCCN(CC)CCCNC(=O)C1c2ccccc2C(=O)N(C)C1c1cn(C)c2ccccc12 (stereo not drawn),,inconclusive: -1.63%
CCOC(=O)C1(CCCc2ccccc2)CCN(C(=O)CSC)CC1,,inconclusive: -0.0577%
O=C1C2C3C=CC(C3)C2C(=O)N1c1ccc2ccccc2c1 (stereo not drawn),,inconclusive: 10.2%
C=CC[C@@H](Cc1ccc(F)cc1)C(=O)OC[C@@H]1CCCN1C(=O)[C@@H](CC=C)CC(=O)N(CCO)Cc1ccccc1,,inconclusive: -1.78%
CCCCc1nc2cc(C(=O)N3CCCC(OCCC)C3)ccc2o1 (stereo not drawn),,inactive: 2.87%
Cc1cccc(-c2nnc(SCC#N)n2Cc2ccccc2)c1,,inactive: 3.42%
CCOC(=O)/C(C#N)=C1/C=C(C)NC(c2ccccc2O)=N1,,inconclusive: 15.1%
O=C(Cc1ccccc1)N1CCC(c2ccccc2)C1 (stereo not drawn),,inconclusive: 10.1%
Cn1ccnc1SCC(=O)Nc1ccc(Oc2ccccc2)cc1,"inconclusive: 35.5 µM [falling, single point]",

# Among those listed so far, 2 contain a nitro group on carbon.
SMILES,Potency,"activity change, negative = inhibition"
O=[N+]([O-])c1ccc2c(c1)nc1n2CCN(c2ccccc2)C1,"inconclusive: 25.1 µM [falling, single point]",
Cc1nc2ccc([N+](=O)[O-])cc2c(=O)n1Cc1cccc(F)c1,,inconclusive: -1.33%
